Experimental data as given in patent publication US20250283129A1, “PROCESS” (Sun Pharmaceutical Industries Australia Pty Limited, priority 2021, published 2025).

B1: Y357S: codeine 3-O-demethylase with amino acid substitution Y357S (protein, listed as Papaver somniferum)
chain: METPILIKLGNGLSIPSVQELAKLTLAEIPSRYTCTGESPLNNIGASVTDDETVPVIDLQNLLSPEPVVGKLELDKLHSACKEWGFFQLVNHGVDALLMDNIKSEIKGFFNLPMNEKTKYGQQDGDFEGFGQPYIESEDQRLDWTEVFSMLSLPLHLRKPHLFPELPLPFRETLESYLSKMKKLSTVVFEMLEKSLQLVEIKGMTDLFEDGLQTMRMNYYPPCPRPELVLGLTSHSDFSGLTILLQLNEVEGLQIRKEERWISIKPLPDAFIVNVGDILEIMTNGIYRSVEHRAVVNSTKERLSIATFHDSKLESEIGPISSLVTPETPALFKRGRYEDILKENLSRKLDGKSFLDSMRM
B2: T3K: codeine 3-O-demethylase with amino acid substitution T3K (protein, listed as Papaver somniferum)
chain: B1 chain with T3K, S357Y
B3: E259S: codeine 3-O-demethylase with amino acid substitution E259S (protein, listed as Papaver somniferum)
chain: B1 chain with E259S, S357Y
B4: E259H: codeine 3-O-demethylase with amino acid substitution E259H (protein, listed as Papaver somniferum)
chain: B1 chain with E259H, S357Y
B5: M360I: codeine 3-O-demethylase with amino acid substitution M360I (protein, listed as Papaver somniferum)
chain: B1 chain with S357Y, M360I
B6: E259Q: codeine 3-O-demethylase with amino acid substitution E259Q (protein, listed as Papaver somniferum)
chain: B1 chain with E259Q, S357Y
B7: 17M: codeine 3-O-demethylase with amino acid substitution I7M (protein, listed as Papaver somniferum)
chain: B1 chain with I7M, S357Y
B8: E259A: codeine 3-O-demethylase with amino acid substitution E259A (protein, listed as Papaver somniferum)
chain: B1 chain with E259A, S357Y
B9: P4A: codeine 3-O-demethylase with amino acid substitution P4A (protein, listed as Papaver somniferum)
chain: B1 chain with P4A, S357Y
B10: E259G+R260K: codeine 3-O-demethylase with amino acid substitutions E259G and R260K (protein, listed as Papaver somniferum)
chain: B1 chain with E259G, R260K, S357Y
B11: R260T: codeine 3-O-demethylase with amino acid substitution R260T (protein, listed as Papaver somniferum)
chain: B1 chain with R260T, S357Y
B12: E259K: endogenous CODM variant with amino acid substitution E259K (protein, listed as Papaver somniferum)
chain: B1 chain with E259K, S357Y
B13: E259D+R260K: codeine 3-O-demethylase with amino acid substitutions E259D and R260K (protein, listed as Papaver somniferum)
chain: B1 chain with E259D, R260K, S357Y
B14: E259D: codeine 3-O-demethylase with amino acid substitution E259D (protein, listed as Papaver somniferum)
chain: B1 chain with E259D, S357Y
B15: 15K: codeine 3-O-demethylase with amino acid substitution I5K (protein, listed as Papaver somniferum)
chain: B1 chain with I5K, S357Y
B16: T3K+P4A+15K+17M+Y357S+M360I: codeine 3-O-demethylase with amino acid substitutions T3K, P4A, I5K, I7M, Y357S and M360I (protein, listed as Papaver somniferum)
chain: B1 chain with T3K, P4A, I5K, I7M, M360I
B17: 15K+M360I: codeine 3-O-demethylase with amino acid substitutions I5K and M360I (protein, listed as Papaver somniferum)
chain: B1 chain with I5K, S357Y, M360I
B18: T3K+P4A+15K+17K: codeine 3-O-demethylase with amino acid substitutions T3K, P4A, I5K and I7M (protein, listed as Papaver somniferum)
chain: B1 chain with T3K, P4A, I5K, I7M, S357Y
B19: E259G: codeine 3-O-demethylase with amino acid substitution E259G (protein, listed as Papaver somniferum)
chain: B1 chain with E259G, S357Y

Assay: Soluble protein expression by SDS-PAGE densiometric analysis
Parameters: species or system E. coli
Conditions: not given

| Molecule | level of soluble protein expression compared to WT CODM (in words) | less soluble protein expressed than WT CODM |
| --- | --- | --- |
| B1 | little change | – |
| B2 | little change | – |
| B3 | reduction in the expression of soluble protein | – |
| B4 | reduction in the expression of soluble protein | – |
| B5 | only small changes in protein expression | – |
| B6 | reduction in the expression of soluble protein | – |
| B7 | little change | – |
| B8 | reduction in the expression of soluble protein | – |
| B9 | little change | – |
| B10 | comparable to the E259D and E259G single mutant strains | – |
| B11 | – | ~63% |
| B12 | reduction in the expression of soluble protein | – |
| B13 | comparable to the E259D and E259G single mutant strains | – |

Same assay, conditions: fold of WT CODM

| Molecule | soluble protein expressed compared to WT CODM |
| --- | --- |
| B14 | ~2.1 × |
| B15 | ~2.9 × |
| B16 | ~4 × |
| B17 | ~5.5 × |
| B18 | ~3.2 × |
| B19 | ~1.5 × |

Positions count from the first letter of the chain named. Names and notes keep the numbering of the source.
